Data on two substances can be found in US20150216891A1.

By UniProt entry, the sequences of proteins in these tests, tags left out. Where a name states a change or a piece, a line headed by the entry shows the natural chain unless it says otherwise.
UniProt P04792: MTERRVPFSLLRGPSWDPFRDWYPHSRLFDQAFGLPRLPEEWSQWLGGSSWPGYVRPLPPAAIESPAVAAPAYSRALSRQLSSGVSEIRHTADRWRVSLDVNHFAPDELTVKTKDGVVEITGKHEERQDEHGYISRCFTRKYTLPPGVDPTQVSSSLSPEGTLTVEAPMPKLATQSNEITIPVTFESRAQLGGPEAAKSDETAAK

Results are given in words; binding and its absence hold for the method and conditions named. Binding seen in cells or lysates may run through a third protein. Some entries that bind do so weakly or less than the wild type.

Test [1] concerns the target T1, Translationally-Controlled Tumor Protein (TCTP) (human) (UniProt P13693).
T1 sequence: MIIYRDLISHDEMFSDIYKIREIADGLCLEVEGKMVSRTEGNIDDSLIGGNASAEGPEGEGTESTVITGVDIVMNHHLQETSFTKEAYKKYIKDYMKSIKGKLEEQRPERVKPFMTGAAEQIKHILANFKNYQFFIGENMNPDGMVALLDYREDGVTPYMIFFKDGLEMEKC
The test is described as follows: co-immunoprecipitation with rabbit anti-TCTP antibody (rabbit IgG as control), LNCaP-Mock and LNCaP-Hsp27 lysates.

For test [2], the target named is T1, Translationally-Controlled Tumor Protein (TCTP) (human). The test is described as follows: co-immunoprecipitation with TCTP from LNCaP cells transfected with HA-tagged phospho-mutants.

Turning to “Heat Shock Protein 27 (Hsp27) (from UniProt P04792 1-205)”, in test [1], the binding entry was “binds”.
For “Hsp27 3A phosphorylation mutant (Ser 15, 78 and 82 replaced by alanines), HA-tagged (from UniProt P04792 1-205)”, the binding entry in test [2] is given as “binds”.
